Values from PubChem BioAssay AID1224830 (NIAID, 2016)

Screen: 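Host factors that control LPS-induced TNF expression in human macrophages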 (primary screen)
System: human THP-1 monocytic leukaemia cells, TNF dual-luciferase reporter clone, PMA-differentiated to macrophage-like cells
Reagents: siRNA pool against human genes, 50 nM
Duration: LPS for 4 h, given about 3 days after siRNA transfection
Challenge: bacterial LPS (TLR4 ligand), 10 ng/ml
Read-out: 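TNF firefly reporter luminescence divided by renilla, normalised to the plate median, then turned into a robust z-score for each replicate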
Direction: TNF reporter robust z-score: higher = stronger TNF reporter response to LPS
Hit rule: 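Each well counts as active if its z-score is over 2.8 or under -1.5; controls are left without a call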
Here is a random part of about 18,000 deposited reagents. Of all reagents, about 2,900 (16%) got an active call. 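Calls are made per well; low scores hint the gene aids the LPS response, high scores that it dampens it.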 Repeated entries: four replicate wells of each siRNA pool.

Which result is listed for JMJD8 (jumonji domain containing 8)?
TNF reporter robust z-score: 0.84; outcome: inactive

For JMJD8 (jumonji domain containing 8), how do the results read?
TNF reporter robust z-score: 0.05; outcome: inactive

With JMJD8 (jumonji domain containing 8), what was measured?
TNF reporter robust z-score: 0.72; outcome: inactive

Which result is listed for JMJD8 (jumonji domain containing 8)?
TNF reporter robust z-score: 0.22; outcome: inactive

For NR1D1 (nuclear receptor subfamily 1 group D member 1), how do the results read?
TNF reporter robust z-score: -0.88; outcome: inactive

For NR1D1 (nuclear receptor subfamily 1 group D member 1), what was measured?
TNF reporter robust z-score: -0.6; outcome: inactive

For NR1D1 (nuclear receptor subfamily 1 group D member 1), what does the deposit list?
TNF reporter robust z-score: -0.83; outcome: inactive

For NR1D1 (nuclear receptor subfamily 1 group D member 1), what does the deposit list?
TNF reporter robust z-score: -0.23; outcome: inactive

Which result is listed for TAF1L (TATA-box binding protein associated factor 1 like)?
TNF reporter robust z-score: 0.41; outcome: inactive

What did the screen give for TAF1L (TATA-box binding protein associated factor 1 like)?
TNF reporter robust z-score: 1.23; outcome: inactive

For TAF1L (TATA-box binding protein associated factor 1 like), how do the results read?
TNF reporter robust z-score: 0.23; outcome: inactive

Which result is listed for TAF1L (TATA-box binding protein associated factor 1 like)?
TNF reporter robust z-score: 1.5; outcome: inactive

Which result is listed for TRPV1?
TNF reporter robust z-score: -0.21; outcome: inactive

What did the screen give for TRPV1?
TNF reporter robust z-score: 2.86; outcome: active

What is on record for TRPV1?
TNF reporter robust z-score: 0.45; outcome: inactive

With TRPV1, how do the results read?
TNF reporter robust z-score: 0.8; outcome: inactive

How did the screen score DRG1 (developmentally regulated GTP binding protein 1)?
TNF reporter robust z-score: 1.76; outcome: inactive

For DRG1 (developmentally regulated GTP binding protein 1), what was measured?
TNF reporter robust z-score: 1.16; outcome: inactive

Which result is listed for DRG1 (developmentally regulated GTP binding protein 1)?
TNF reporter robust z-score: 1.27; outcome: inactive

For DRG1 (developmentally regulated GTP binding protein 1), what does the deposit list?
TNF reporter robust z-score: 2.54; outcome: inactive

4 consecutive records already listed, quoted:
JMJD8 (jumonji domain containing 8) — TNF reporter robust z-score: 0.72; outcome: inactive
JMJD8 (jumonji domain containing 8) — TNF reporter robust z-score: 0.22; outcome: inactive
NR1D1 (nuclear receptor subfamily 1 group D member 1) — TNF reporter robust z-score: -0.88; outcome: inactive
NR1D1 (nuclear receptor subfamily 1 group D member 1) — TNF reporter robust z-score: -0.6; outcome: inactive

Additional entries follow:
With NLRP7 (NLR family pyrin domain containing 7), how do the results read?
TNF reporter robust z-score: -1.17; outcome: inactive

How did the screen score NLRP7 (NLR family pyrin domain containing 7)?
TNF reporter robust z-score: -0.73; outcome: inactive

For NLRP7 (NLR family pyrin domain containing 7), what was measured?
TNF reporter robust z-score: -0.69; outcome: inactive

How did the screen score NLRP7 (NLR family pyrin domain containing 7)?
TNF reporter robust z-score: -0.45; outcome: inactive

For ZNF763 (zinc finger protein 763), how do the results read?
TNF reporter robust z-score: 0.31; outcome: inactive

With ZNF763 (zinc finger protein 763), what does the deposit list?
TNF reporter robust z-score: 0.59; outcome: inactive

With ZNF763 (zinc finger protein 763), how do the results read?
TNF reporter robust z-score: 1.37; outcome: inactive

With ZNF763 (zinc finger protein 763), what was measured?
TNF reporter robust z-score: 1.12; outcome: inactive

What did the screen give for MEGF6 (multiple EGF like domains 6)?
TNF reporter robust z-score: -1.5; outcome: inactive

With MEGF6 (multiple EGF like domains 6), what was measured?
TNF reporter robust z-score: -1.71; outcome: active

Which result is listed for MEGF6 (multiple EGF like domains 6)?
TNF reporter robust z-score: -1.86; outcome: active

For MEGF6 (multiple EGF like domains 6), how do the results read?
TNF reporter robust z-score: -1.52; outcome: active
